We go through 1 molecule from patent US6479280.

Amino acid sequences for entries named in this document (tags omitted). Residues count along the entry.
UniProt P01012, residues 2-386: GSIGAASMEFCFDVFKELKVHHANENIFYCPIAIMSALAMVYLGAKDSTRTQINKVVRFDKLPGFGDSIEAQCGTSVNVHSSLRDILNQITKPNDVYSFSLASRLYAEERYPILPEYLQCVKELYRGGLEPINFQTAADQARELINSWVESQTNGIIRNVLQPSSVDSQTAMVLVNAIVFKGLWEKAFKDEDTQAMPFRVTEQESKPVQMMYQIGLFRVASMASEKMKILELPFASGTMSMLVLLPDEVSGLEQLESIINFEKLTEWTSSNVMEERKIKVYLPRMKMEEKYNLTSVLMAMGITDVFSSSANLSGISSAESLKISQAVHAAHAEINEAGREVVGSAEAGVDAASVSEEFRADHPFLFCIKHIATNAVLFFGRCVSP

These are yes or no findings as the source states them, for the method shown. Some results given as binding are weak or reduced against the parent protein; the word gives no strength.

The target in the assay is hen-egg ovalbumin (hen) (UniProt P01012). Description: biopanning on coated ovalbumin, then ELISA of periplasmic extracts for ovalbumin binders. For orientation: In an ELISA, binding on a coated surface is turned into a signal by an enzyme label.

B1: 1DBOVA1 (VHH, not shown: small tags and cut ends)
VHH: DVQLVESGGGSVPAGSLRLSCAVSGYTYENRYMAWFRQAPGKEREGVAAIWRGGNNPYYADSVKGRFTISQDNAKNIVSLLMNSLKPEDTAIYYCAAQAGRFSGPLYESTYDYWGQGTQVTVSS
Consider B1, for which the binding entry is listed as “binds”.
